Experiment [1] has as its target CONSTRUCT 5 (anti-BCMA chimeric antigen receptor with human Ikaros 3 degron sequences at the C-terminus) (human). Kind of experiment: flow cytometry of transfected (ZsGreen positive) NFAT-luc2 Jurkat cells stained with AlexaFluor 647 BCMA-Fc after 24 h in DMSO or 10 µM lenalidomide. (In general: Flow cytometry measures light scatter and fluorescence of single cells or particles in a stream.)

Chains of the proteins cited; added tags and fusions are not shown. Residues count along the entry.
UniProt Q02223, residues 1-54: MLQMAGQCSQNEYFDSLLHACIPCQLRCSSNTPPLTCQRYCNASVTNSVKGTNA

Experiment [2] addresses CONSTRUCT 4 (anti-BCMA chimeric antigen receptor without a degron signal) (human). The experiment is described as above.

Results are given in words; binding and its absence hold for the method and conditions named. Some binding calls cover weakened binding; strength is not graded here.

“AlexaFluor 647 conjugated BCMA-Fc (from UniProt Q02223 1-54) (Fc fusion)”: the binding entry in experiment [1] and in experiment [2] was “binds” each time.

The values above are taken from patent US20200283538A1.
